According to patent US10227357B2, “Compounds and methods for kinase modulation, and indications therefor” (Plexxikon Inc., priority 2012, dated 2019):
Some entries share one result that the patent states for a list of compounds.

Sequences of proteins named here, by UniProt entry; tags and fusion partners are left off.
UniProt P10721, whole entry D816V: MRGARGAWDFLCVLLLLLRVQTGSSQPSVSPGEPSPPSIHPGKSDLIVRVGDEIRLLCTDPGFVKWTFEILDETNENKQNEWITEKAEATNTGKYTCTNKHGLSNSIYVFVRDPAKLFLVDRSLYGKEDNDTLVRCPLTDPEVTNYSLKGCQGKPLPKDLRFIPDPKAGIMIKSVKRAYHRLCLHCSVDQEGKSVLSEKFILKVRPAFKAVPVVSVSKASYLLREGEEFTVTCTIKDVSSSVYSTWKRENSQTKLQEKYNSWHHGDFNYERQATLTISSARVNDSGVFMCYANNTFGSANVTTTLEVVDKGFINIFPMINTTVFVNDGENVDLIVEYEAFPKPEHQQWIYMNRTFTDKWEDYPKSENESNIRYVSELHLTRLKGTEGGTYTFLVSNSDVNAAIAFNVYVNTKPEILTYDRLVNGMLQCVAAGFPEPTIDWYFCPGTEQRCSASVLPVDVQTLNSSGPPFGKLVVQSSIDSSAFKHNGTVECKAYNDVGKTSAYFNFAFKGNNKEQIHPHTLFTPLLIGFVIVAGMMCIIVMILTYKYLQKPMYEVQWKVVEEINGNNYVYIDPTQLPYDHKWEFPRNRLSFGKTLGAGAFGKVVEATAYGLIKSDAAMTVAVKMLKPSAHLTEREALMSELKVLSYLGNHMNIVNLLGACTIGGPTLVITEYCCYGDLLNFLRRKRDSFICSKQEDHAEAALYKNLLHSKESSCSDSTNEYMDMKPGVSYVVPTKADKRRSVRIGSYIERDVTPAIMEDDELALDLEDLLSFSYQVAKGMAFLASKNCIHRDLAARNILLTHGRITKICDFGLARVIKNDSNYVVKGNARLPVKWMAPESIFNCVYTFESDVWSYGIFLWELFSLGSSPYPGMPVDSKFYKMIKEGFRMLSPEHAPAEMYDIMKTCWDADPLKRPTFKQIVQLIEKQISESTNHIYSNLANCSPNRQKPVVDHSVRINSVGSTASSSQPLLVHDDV

Each compound was assayed against BaF3-FL KIT D816V cells (Homo sapiens, UniProt P10721, D816V, cells depend on it, form not given) (assay: Cell-based assay of c-Kit mutant kinase activity, BaF3-FL KIT D816V cell proliferation (ATPlite)). Conditions: in at least one of the c-kit cell assays described in Example 28 (BaF3-FL KIT D816V or BaF3-FL KIT V560G/D816V); read-out: IC50 (the source's name).
O=C(Nc1ccc(-c2ncnc3cc(-c4ccc(F)cc4)sc23)cc1)c1ccccc1 [P-0631, N-[4-[6-(4-fluorophenyl)thieno[3,2-d]pyrimidin-4-yl]phenyl]benzamide] was tested, and the GI50 was less than 10 µM. CC(=O)Nc1ccc(-c2ncnc3cc(-c4ccc(F)cc4)sc23)cc1 [P-0632, N-[4-[6-(4-fluorophenyl)thieno[3,2-d]pyrimidin-4-yl]phenyl]acetamide] was tested, and the GI50 was less than 10 µM. Compound O=C(NCc1ccc(F)cc1)Nc1ccc(-c2ncnc3cc(-c4ccc(F)cc4)sc23)cc1 [P-0633, 1-[(4-fluorophenyl)methyl]-3-[4-[6-(4-fluorophenyl)thieno[3,2-d]pyrimidin-4-yl]phenyl]urea] has a GI50 of less than 10 µM. Nc1ccc(-c2ncnc3cc(-c4ccc(F)cc4)sc23)cc1 [P-0634, 4-[6-(4-fluorophenyl)thieno[3,2-d]pyrimidin-4-yl]aniline] showed a GI50 of less than 10 µM. O=S(=O)(NCc1ccccc1)c1ccc(-c2ncnc3cc(-c4ccc(F)cc4)sc23)cc1 [P-0635, N-benzyl-4-[6-(4-fluorophenyl)thieno[3,2-d]pyrimidin-4-yl]benzenesulfonamide] showed a GI50 of less than 10 µM. Cc1ccc(S(=O)(=O)Nc2ccc(-c3ncnc4cc(-c5ccc(F)cc5)sc34)cc2)cc1 [P-0636, N-[4-[6-(4-fluorophenyl)thieno[3,2-d]pyrimidin-4-yl]phenyl]-4-methyl-benzenesulfonamide] gave a GI50 of less than 10 µM. Work on CC(C)(C)c1cc2ncnc(N3CCN(C(=O)NCc4ccc(F)cc4)CC3)c2s1 [P-0637, 4-(6-tert-butylthieno[3,2-d]pyrimidin-4-yl)-N-[(4-fluorophenyl)methyl]piperazine-1-carboxamide] yielded a GI50 of less than 10 µM. In the case of O=C(NCc1ccc(F)cc1)N1CCN(c2ncnc3ccsc23)CC1 [P-0638, N-[(4-fluorophenyl)methyl]-4-thieno[3,2-d]pyrimidin-4-yl-piperazine-1-carboxamide], the GI50 is reported as less than 10 µM. CC(C)(C)c1cc2ncnc(N3CCN(C(=O)Nc4ccc(F)cc4)CC3)c2s1 [P-0639, 4-(6-tert-butylthieno[3,2-d]pyrimidin-4-yl)-N-(4-fluorophenyl)piperazine-1-carboxamide] was tested, and the GI50 was less than 10 µM. O=C(Nc1ccc(F)cc1)N1CCN(c2ncnc3ccsc23)CC1 [P-0640, N-(4-fluorophenyl)-4-thieno[3,2-d]pyrimidin-4-yl-piperazine-1-carboxamide] gave a GI50 of less than 10 µM. Cc1cc2c(N3CCN(C(=O)N[C@@H](C)c4cccc(Cl)c4)C(C)(C)C3)ncnc2[nH]1 [P-0641, N-[(1S)-1-(3-chlorophenyl)ethyl]-2,2-dimethyl-4-(6-methyl-7H-pyrrolo[2,3-d]pyrimidin-4-yl)piperazine-1-carboxamide] was tested, and the GI50 was less than 10 µM. With C[C@H](NC(=O)N1CCN(c2ncnc3[nH]c(-c4ccc(F)cc4)cc23)CC1(C)C)c1ccc(F)cc1 [P-0642, N-[(1S)-1-(4-fluorophenyl)ethyl]-4-[6-(4-fluorophenyl)-7H-pyrrolo[2,3-d]pyrimidin-4-yl]-2,2-dimethyl-piperazine-1-carboxamide] the GI50 was less than 10 µM. For COc1cc(-c2cc3c(N4CCN(C(=O)N[C@@H](C)c5ccc(F)cc5)C(C)(C)C4)ncnc3[nH]2)ccn1 [P-0643], the GI50 was less than 10 µM. Cc1cc2c(N3CCN(C(=O)N[C@@H](C)c4ccc(F)cc4)C(C)(C)C3)ncnc2[nH]1 [P-0644, N-[(1S)-1-(4-fluorophenyl)ethyl]-2,2-dimethyl-4-(6-methyl-7H-pyrrolo[2,3-d]pyrimidin-4-yl)piperazine-1-carboxamide] showed a GI50 of less than 10 µM. For Cc1cc2c(N3CCN(C(=O)N[C@@H](C)c4cccc(OC(F)F)c4)C(C)(C)C3)ncnc2[nH]1 [P-0645, N-[(1S)-1-[3-(difluoromethoxy)phenyl]ethyl]-2,2-dimethyl-4-(6-methyl-7H-pyrrolo[2,3-d]pyrimidin-4-yl)piperazine-1-carboxamide], the GI50 was less than 10 µM. Cc1cc2c(N3CCN(C(=O)N[C@@H](C)c4ccc(F)cc4)[C@H](C)C3)ncnc2[nH]1 [P-0646, (2R)-N-[(1S)-1-(4-fluorophenyl)ethyl]-2-methyl-4-(6-methyl-7H-pyrrolo[2,3-d]pyrimidin-4-yl)piperazine-1-carboxamide] gave a GI50 of less than 10 µM. Cc1cc2c(N3CCN(C(=O)N[C@@H](C)c4cccc(OC(F)F)c4)[C@H](C)C3)ncnc2[nH]1 [P-0648, (2R)-N-[(1S)-1-[3-(difluoromethoxy)phenyl]ethyl]-2-methyl-4-(6-methyl-7H-pyrrolo[2,3-d]pyrimidin-4-yl)piperazine-1-carboxamide] showed a GI50 of less than 10 µM. COc1cc([C@H](C)NC(=O)N2CCN(c3ncnc4[nH]c(-c5ccc(F)cc5)cc34)C[C@H]2C)ccc1Cl [P-0649, (2R)-N-[(1S)-1-(4-chloro-3-methoxy-phenyl)ethyl]-4-[6-(4-fluorophenyl)-7H-pyrrolo[2,3-d]pyrimidin-4-yl]-2-methyl-piperazine-1-carboxamide] showed a GI50 of less than 10 µM. Work on COc1cc(-c2cc3c(N4CCN(C(=O)N[C@@H](C)c5cccc(Cl)c5)C(C)(C)C4)ncnc3[nH]2)ccn1 [P-0650, N-[(1S)-1-(3-chlorophenyl)ethyl]-4-[6-(2-methoxy-4-pyridyl)-7H-pyrrolo[2,3-d]pyrimidin-4-yl]-2,2-dimethyl-piperazine-1-carboxamide] yielded a GI50 of less than 10 µM. For CCCc1ccc(S(=O)(=O)NC2CC=C(c3ncnc4[nH]c(C)cc34)CC2)cc1 (stereo not drawn) [P-0651, N-[4-(6-methyl-7H-pyrrolo[2,3-d]pyrimidin-4-yl)cyclohex-3-en-1-yl]-4-propyl-benzenesulfonamide], the GI50 was less than 10 µM. Cc1cc2c(C3=CCC(NS(=O)(=O)c4ccc(OC(C)C)cc4)CC3)ncnc2[nH]1 (stereo not drawn) [P-0652, 4-isopropoxy-N-[4-(6-methyl-7H-pyrrolo[2,3-d]pyrimidin-4-yl)cyclohex-3-en-1-yl]benzenesulfonamide] showed a GI50 of less than 10 µM. In the case of Cc1cc2c(C3=CCC(NS(=O)(=O)c4ccc(OC(F)F)cc4)CC3)ncnc2[nH]1 (stereo not drawn) [P-0653, 4-(difluoromethoxy)-N-[4-(6-methyl-7H-pyrrolo[2,3-d]pyrimidin-4-yl)cyclohex-3-en-1-yl]benzenesulfonamide], the GI50 is reported as less than 10 µM. Compound O=S(=O)(Nc1ccc(-c2ncnc3[nH]c(Cl)cc23)cc1)c1ccc(OC(F)F)cc1 [P-0655, N-[4-(6-chloro-7H-pyrrolo[2,3-d]pyrimidin-4-yl)phenyl]-4-(difluoromethoxy)benzenesulfonamide] has a GI50 of less than 10 µM. In the case of Cc1cc2c(N3CCC(NS(=O)(=O)c4ccc(OC(F)F)cc4)CC3)ncnc2[nH]1 [P-0656, 4-(difluoromethoxy)-N-[1-(6-methyl-7H-pyrrolo[2,3-d]pyrimidin-4-yl)-4-piperidyl]benzenesulfonamide], the GI50 is reported as less than 10 µM. For Cc1cc2c(N3CCC(NS(=O)(=O)c4ccc(C(C)C)cc4)CC3)ncnc2[nH]1 [P-0657, 4-isopropyl-N-[1-(6-methyl-7H-pyrrolo[2,3-d]pyrimidin-4-yl)-4-piperidyl]benzenesulfonamide], the GI50 was less than 10 µM. With CCCc1ccc(S(=O)(=O)NC2CCN(c3ncnc4[nH]c(C)cc34)CC2)cc1 [P-0658, N-[1-(6-methyl-7H-pyrrolo[2,3-d]pyrimidin-4-yl)-4-piperidyl]-4-propyl-benzenesulfonamide] the GI50 was less than 10 µM. For Cc1ccc(S(=O)(=O)NC2CCN(c3ncnc4[nH]c(-c5cn(C)nc5C)cc34)CC2)cc1 [P-0659, N-[1-[6-(1,3-dimethylpyrazol-4-yl)-7H-pyrrolo[2,3-d]pyrimidin-4-yl]-4-piperidyl]-4-methyl-benzenesulfonamide], the GI50 was less than 10 µM. COc1cc(-c2cc3c(N4CCC(NS(=O)(=O)c5ccc(C)cc5)CC4)ncnc3[nH]2)ccn1 [P-0660, N-[1-[6-(2-methoxy-4-pyridyl)-7H-pyrrolo[2,3-d]pyrimidin-4-yl]-4-piperidyl]-4-methyl-benzenesulfonamide] gave a GI50 of less than 10 µM. Cc1csc(-c2cc3c(N4CCC(NS(=O)(=O)c5ccc(OC(F)(F)F)cc5)CC4)ncnc3[nH]2)c1 [P-0661, N-[1-[6-(4-methyl-2-thienyl)-7H-pyrrolo[2,3-d]pyrimidin-4-yl]-4-piperidyl]-4-(trifluoromethoxy)benzenesulfonamide] was tested, and the GI50 was less than 10 µM. CC1(C)C=C(c2cc3c(N4CCC(NS(=O)(=O)c5ccc(OC(F)(F)F)cc5)CC4)ncnc3[nH]2)CC(C)(C)N1 [P-0662, N-[1-[6-(2,2,6,6-tetramethyl-1,3-dihydropyridin-4-yl)-7H-pyrrolo[2,3-d]pyrimidin-4-yl]-4-piperidyl]-4-(trifluoromethoxy)benzenesulfonamide] gave a GI50 of less than 10 µM. Work on CC1(C)C=C(c2cc3c(N4CCC(NS(=O)(=O)c5ccc(OC(F)(F)F)cc5)CC4)ncnc3[nH]2)CC(C)(C)O1 [P-0663, N-[1-[6-(2,2,6,6-tetramethyl-3H-pyran-4-yl)-7H-pyrrolo[2,3-d]pyrimidin-4-yl]-4-piperidyl]-4-(trifluoromethoxy)benzenesulfonamide] yielded a GI50 of less than 10 µM. For Cc1nc(C)c(-c2cc3c(N4CCC(NS(=O)(=O)c5ccc(OC(F)(F)F)cc5)CC4)ncnc3[nH]2)s1 [P-0664, N-[1-[6-(2,4-dimethylthiazol-5-yl)-7H-pyrrolo[2,3-d]pyrimidin-4-yl]-4-piperidyl]-4-(trifluoromethoxy)benzenesulfonamide], the GI50 was less than 10 µM. With CCc1ccc(S(=O)(=O)NC2CCN(c3ncnc4[nH]c(-c5cnn(C)c5)cc34)CC2)s1 [P-0665, 5-ethyl-N-[1-[6-(1-methylpyrazol-4-yl)-7H-pyrrolo[2,3-d]pyrimidin-4-yl]-4-piperidyl]thiophene-2-sulfonamide] the GI50 was less than 10 µM. Compound COc1cc(-c2cc3c(N4CCC(NS(=O)(=O)c5ccc(Cl)cc5)CC4)ncnc3[nH]2)ccn1 [P-0666, 4-chloro-N-[1-[6-(2-methoxy-4-pyridyl)-7H-pyrrolo[2,3-d]pyrimidin-4-yl]-4-piperidyl]benzenesulfonamide] has a GI50 of less than 10 µM. Cc1nn(C)cc1-c1cc2c(N3CCC(NS(=O)(=O)c4ccc(Cl)cc4)CC3)ncnc2[nH]1 [P-0667, 4-chloro-N-[1-[6-(1,3-dimethylpyrazol-4-yl)-7H-pyrrolo[2,3-d]pyrimidin-4-yl]-4-piperidyl]benzenesulfonamide] gave a GI50 of less than 10 µM. Work on Cc1nn(C)cc1-c1cc2c(N3CCC(NS(=O)(=O)c4ccc(OC(F)(F)F)cc4)CC3)ncnc2[nH]1 [P-0668, N-[1-[6-(1,3-dimethylpyrazol-4-yl)-7H-pyrrolo[2,3-d]pyrimidin-4-yl]-4-piperidyl]-4-(trifluoromethoxy)benzenesulfonamide] yielded a GI50 of less than 10 µM.
